# From the supplement of paper PMC7666118
# Protein sequences, listed by entry. Tags and fused reporters are not part of them. Lines headed by an entry give the natural chain unless they say otherwise; changes in a name come on top.
# UniProt Q969V5: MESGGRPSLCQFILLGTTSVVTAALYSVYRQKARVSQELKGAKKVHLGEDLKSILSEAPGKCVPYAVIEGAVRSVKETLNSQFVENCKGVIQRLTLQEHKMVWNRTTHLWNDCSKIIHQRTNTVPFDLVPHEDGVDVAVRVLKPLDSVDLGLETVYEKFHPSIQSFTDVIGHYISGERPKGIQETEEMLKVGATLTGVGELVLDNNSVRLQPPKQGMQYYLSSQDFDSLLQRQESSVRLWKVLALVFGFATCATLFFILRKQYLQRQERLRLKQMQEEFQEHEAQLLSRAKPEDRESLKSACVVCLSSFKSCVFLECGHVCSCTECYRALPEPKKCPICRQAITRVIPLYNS
# UniProt O75113: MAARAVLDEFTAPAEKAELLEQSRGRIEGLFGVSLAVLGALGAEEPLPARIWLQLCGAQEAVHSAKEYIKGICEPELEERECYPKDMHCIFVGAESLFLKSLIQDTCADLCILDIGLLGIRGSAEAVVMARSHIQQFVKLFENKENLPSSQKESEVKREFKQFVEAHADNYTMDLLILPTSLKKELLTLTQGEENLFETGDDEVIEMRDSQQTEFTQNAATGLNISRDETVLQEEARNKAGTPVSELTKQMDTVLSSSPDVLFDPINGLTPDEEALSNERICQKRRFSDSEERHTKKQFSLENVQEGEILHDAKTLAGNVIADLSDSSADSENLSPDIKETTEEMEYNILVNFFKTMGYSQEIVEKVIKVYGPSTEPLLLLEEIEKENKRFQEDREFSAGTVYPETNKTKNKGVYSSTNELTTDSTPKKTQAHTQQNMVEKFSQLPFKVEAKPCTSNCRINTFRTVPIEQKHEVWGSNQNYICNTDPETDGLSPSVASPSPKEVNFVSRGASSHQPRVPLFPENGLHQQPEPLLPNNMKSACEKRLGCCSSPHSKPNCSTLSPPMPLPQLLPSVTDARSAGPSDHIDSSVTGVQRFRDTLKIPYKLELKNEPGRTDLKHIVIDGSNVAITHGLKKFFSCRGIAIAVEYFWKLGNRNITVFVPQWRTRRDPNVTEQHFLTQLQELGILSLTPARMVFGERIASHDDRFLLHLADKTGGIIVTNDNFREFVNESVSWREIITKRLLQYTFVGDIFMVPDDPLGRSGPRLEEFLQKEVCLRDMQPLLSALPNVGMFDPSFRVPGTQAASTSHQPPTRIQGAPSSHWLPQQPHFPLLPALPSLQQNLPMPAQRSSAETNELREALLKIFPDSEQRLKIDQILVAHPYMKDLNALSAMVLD
# UniProt Q96RE7: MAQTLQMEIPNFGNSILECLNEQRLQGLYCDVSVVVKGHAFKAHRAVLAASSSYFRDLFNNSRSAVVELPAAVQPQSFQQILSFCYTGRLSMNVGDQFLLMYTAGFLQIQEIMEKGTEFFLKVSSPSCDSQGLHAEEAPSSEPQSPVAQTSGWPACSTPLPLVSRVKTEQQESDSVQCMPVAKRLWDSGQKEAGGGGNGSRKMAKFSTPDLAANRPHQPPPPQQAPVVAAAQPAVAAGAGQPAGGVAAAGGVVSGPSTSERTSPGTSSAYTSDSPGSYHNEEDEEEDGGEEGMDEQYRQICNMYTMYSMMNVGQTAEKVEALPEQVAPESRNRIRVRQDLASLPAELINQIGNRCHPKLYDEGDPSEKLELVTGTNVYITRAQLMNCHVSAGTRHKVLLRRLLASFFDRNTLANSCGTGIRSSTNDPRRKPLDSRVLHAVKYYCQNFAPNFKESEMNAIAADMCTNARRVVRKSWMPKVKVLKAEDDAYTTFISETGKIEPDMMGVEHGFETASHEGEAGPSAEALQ
# UniProt P50579: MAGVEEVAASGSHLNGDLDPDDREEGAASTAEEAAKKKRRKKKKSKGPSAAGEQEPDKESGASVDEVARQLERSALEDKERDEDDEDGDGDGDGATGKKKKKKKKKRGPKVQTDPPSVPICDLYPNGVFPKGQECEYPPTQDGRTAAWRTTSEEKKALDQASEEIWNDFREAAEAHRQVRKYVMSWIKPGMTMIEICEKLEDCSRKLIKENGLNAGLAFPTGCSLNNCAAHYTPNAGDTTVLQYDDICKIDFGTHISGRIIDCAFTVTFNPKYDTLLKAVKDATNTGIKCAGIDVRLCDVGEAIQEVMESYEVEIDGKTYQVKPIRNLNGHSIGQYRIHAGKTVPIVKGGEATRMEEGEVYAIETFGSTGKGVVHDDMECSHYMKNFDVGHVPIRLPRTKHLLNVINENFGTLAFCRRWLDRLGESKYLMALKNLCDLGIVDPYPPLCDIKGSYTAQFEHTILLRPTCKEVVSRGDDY
# UniProt Q9H000: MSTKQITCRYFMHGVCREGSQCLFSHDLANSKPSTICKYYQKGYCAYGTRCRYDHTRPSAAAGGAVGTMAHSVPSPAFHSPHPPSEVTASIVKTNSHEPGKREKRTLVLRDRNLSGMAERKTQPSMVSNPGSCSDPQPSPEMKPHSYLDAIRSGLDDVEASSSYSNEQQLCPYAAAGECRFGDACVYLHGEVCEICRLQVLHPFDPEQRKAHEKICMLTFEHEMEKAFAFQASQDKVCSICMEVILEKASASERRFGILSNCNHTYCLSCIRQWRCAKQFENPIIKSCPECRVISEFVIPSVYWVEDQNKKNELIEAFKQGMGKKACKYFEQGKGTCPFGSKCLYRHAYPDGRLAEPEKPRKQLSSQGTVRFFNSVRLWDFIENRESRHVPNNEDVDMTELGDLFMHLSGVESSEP
# UniProt P10242: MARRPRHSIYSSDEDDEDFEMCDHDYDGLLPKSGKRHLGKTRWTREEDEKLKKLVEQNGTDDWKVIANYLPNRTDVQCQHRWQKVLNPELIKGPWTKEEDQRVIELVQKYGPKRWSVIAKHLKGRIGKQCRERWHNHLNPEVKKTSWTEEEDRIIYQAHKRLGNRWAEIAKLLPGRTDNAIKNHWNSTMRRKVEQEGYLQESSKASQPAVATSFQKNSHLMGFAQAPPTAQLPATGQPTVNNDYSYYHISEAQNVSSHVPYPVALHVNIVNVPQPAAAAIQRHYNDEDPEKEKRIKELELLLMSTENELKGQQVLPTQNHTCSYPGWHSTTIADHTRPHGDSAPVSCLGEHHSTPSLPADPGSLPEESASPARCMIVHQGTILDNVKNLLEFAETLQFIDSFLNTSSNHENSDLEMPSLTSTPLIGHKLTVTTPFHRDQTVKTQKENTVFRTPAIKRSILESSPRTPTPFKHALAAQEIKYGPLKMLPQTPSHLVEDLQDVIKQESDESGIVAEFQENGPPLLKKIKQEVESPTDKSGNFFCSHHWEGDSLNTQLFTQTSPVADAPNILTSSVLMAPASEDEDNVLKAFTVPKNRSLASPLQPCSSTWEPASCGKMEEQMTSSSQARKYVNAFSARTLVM
# UniProt Q96BX8: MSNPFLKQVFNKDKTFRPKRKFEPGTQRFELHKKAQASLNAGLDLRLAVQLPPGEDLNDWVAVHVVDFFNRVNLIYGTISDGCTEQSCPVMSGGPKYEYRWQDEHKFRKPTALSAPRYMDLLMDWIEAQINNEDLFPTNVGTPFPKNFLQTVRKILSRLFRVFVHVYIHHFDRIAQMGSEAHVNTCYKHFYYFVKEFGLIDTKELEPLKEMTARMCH
# UniProt A6NJ78: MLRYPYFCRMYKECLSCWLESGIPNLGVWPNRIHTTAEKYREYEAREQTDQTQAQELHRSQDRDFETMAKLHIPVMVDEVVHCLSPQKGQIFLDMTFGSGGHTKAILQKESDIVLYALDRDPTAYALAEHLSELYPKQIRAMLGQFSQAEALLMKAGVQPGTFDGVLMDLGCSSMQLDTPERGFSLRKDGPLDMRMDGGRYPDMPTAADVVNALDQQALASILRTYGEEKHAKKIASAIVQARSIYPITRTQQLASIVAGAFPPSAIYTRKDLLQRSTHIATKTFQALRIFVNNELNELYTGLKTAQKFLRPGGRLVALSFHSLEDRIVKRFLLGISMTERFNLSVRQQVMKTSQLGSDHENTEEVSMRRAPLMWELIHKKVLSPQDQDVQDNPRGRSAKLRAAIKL
# UniProt Q15648, whole entry: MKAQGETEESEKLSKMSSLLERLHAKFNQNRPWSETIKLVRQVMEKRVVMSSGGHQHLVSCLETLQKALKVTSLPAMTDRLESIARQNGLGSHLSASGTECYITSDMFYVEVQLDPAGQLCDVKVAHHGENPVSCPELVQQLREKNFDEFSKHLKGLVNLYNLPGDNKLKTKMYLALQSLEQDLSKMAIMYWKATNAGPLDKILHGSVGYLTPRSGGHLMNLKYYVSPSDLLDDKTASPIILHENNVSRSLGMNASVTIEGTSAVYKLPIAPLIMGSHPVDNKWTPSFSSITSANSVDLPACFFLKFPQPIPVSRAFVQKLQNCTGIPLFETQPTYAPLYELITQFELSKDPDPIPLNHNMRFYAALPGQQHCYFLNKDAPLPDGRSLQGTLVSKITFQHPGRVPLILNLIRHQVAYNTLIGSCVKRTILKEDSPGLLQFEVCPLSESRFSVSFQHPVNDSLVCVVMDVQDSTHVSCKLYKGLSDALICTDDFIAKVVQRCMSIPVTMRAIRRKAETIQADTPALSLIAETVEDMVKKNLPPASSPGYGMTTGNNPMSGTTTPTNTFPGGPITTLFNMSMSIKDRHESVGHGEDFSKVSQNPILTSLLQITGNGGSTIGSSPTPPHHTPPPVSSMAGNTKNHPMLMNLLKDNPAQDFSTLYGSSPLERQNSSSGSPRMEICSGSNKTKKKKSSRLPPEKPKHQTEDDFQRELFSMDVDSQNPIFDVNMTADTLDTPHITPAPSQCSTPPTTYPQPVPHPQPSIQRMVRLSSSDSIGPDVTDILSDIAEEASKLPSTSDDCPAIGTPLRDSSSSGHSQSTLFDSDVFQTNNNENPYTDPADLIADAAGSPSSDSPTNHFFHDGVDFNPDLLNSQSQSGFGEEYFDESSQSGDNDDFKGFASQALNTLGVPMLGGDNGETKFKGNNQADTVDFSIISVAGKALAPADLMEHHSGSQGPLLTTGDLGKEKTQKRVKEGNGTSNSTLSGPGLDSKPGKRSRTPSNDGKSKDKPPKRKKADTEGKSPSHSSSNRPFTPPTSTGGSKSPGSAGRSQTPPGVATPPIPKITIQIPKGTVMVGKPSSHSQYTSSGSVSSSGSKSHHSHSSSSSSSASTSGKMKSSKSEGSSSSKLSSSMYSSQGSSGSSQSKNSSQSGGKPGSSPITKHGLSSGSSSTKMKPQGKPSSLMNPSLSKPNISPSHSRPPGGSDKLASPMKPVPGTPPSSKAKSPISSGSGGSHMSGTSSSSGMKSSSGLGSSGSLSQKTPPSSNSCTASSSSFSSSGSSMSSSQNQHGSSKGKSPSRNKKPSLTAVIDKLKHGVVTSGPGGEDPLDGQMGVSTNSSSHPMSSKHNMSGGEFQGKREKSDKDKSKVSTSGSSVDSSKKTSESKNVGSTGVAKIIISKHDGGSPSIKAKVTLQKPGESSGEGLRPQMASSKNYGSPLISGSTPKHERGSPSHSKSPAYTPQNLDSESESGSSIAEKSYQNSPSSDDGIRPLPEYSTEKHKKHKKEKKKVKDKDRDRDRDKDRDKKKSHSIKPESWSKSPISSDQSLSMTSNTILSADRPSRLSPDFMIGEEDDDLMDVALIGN
# UniProt O75586: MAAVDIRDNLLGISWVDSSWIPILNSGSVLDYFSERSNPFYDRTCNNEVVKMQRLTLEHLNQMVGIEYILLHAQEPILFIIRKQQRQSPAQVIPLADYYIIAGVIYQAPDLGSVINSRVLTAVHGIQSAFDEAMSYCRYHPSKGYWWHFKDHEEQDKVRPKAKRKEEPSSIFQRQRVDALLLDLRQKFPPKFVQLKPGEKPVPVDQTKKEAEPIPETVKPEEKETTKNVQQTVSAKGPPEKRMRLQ
# UniProt Q6ZSS7: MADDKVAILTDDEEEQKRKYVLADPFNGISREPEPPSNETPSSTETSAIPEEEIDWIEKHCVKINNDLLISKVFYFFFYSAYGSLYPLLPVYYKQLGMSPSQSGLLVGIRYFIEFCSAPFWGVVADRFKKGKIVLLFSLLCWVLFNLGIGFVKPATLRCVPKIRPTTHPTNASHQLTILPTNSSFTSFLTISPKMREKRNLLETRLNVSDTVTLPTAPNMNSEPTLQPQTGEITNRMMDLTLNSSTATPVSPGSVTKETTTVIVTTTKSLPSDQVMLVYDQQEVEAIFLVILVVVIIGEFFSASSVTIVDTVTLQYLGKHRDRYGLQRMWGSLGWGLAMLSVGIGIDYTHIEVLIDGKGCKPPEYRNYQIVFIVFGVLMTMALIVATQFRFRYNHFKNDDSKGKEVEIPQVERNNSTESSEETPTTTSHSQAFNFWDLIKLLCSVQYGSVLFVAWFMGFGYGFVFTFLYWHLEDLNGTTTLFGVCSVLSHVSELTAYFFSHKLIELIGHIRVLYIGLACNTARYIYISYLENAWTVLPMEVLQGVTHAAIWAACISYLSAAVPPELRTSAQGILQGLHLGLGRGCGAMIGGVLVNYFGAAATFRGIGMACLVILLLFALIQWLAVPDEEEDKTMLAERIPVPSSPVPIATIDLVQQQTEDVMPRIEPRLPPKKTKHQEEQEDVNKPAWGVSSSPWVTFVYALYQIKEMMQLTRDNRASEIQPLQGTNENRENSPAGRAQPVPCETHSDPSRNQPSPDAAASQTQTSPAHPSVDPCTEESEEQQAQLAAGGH
# The list shows a part of the results.
# Compound: COc1ccc(Cn2ccc3cc(C)c(C(=O)NO)cc32)cc1
# Test: dose-dependent thermal stabilisation call (2D-TPP, DLPTP, 10% FDR) (binary (1 = stabilised)); higher = stabilised by the compound
# Conditions: system: HL-60 intact cells; concentration range 0.04-10 µM
# Protocol: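 2D thermal proteome profiling in intact HL-60 cells treated with BRD-3811 (0, 0.04, 0.29, 2, 10 uM) for 90 min at 37 C, then heated 3 min at one of 12 temperatures (42-63.9 C). Soluble protein was quantified by TMT10 MS. The value is the DLPTP call of the paper: dose-dependent thermal stabilisation over all temperatures at 10% FDR (F-test of a dose-response against a flat model); one experiment, one call per tested protein.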
row,Target,dose-dependent thermal stabilisation call
1,MRPL19 (UniProt P49406),inactive: 0
2,MRPL27 (UniProt Q9P0M9),inactive: 0
3,MUL1 (UniProt Q969V5),inactive: 0
4,MMS19 (UniProt Q96T76),inactive: 0
5,MRPL28 (UniProt Q13084),inactive: 0
6,MRPL50 (UniProt Q8N5N7),inactive: 0
7,MYO18A,inactive: 0
8,MRPL12 (UniProt P52815),inactive: 0
9,MNT (UniProt Q99583),inactive: 0
10,MRE11A (UniProt P49959),inactive: 0
11,N4BP1 (UniProt O75113),inactive: 0
12,NACC1 (UniProt Q96RE7),inactive: 0
13,MKLN1 (UniProt Q9UL63),inactive: 0
14,MRPS33 (UniProt Q9Y291),inactive: 0
15,MGC52424,inactive: 0
16,METAP2 (UniProt P50579),inactive: 0
17,MRPL21 (UniProt Q7Z2W9),inactive: 0
18,MKRN2 (UniProt Q9H000),inactive: 0

row,Target,dose-dependent thermal stabilisation call
1,MLLT4 (UniProt P55196),inactive: 0
2,MYB (UniProt P10242),inactive: 0
3,MRPL1 (UniProt Q9BYD6),inactive: 0
4,MOBKL2A (UniProt Q96BX8),inactive: 0
5,MRPL42 (UniProt Q9Y6G3),inactive: 0
6,METT5D1 (UniProt A6NJ78),inactive: 0
7,MRPL37 (UniProt Q9BZE1),inactive: 0
8,MOCS3 (UniProt O95396),inactive: 0
9,MED1 (UniProt Q15648),inactive: 0
10,MED6 (UniProt O75586),inactive: 0
11,MTPAP (UniProt Q9NVV4),inactive: 0
12,MRPL55 (UniProt Q7Z7F7),inactive: 0
13,NAE1 (UniProt Q13564),inactive: 0
14,MFSD6 (UniProt Q6ZSS7),inactive: 0
15,MYNN (UniProt Q9NPC7),inactive: 0
16,MED30 (UniProt Q96HR3),inactive: 0
17,MYCBP (UniProt Q99417),inactive: 0
18,MLL2,inactive: 0

# Retrieved one by one from the list above (3):
row,Target,dose-dependent thermal stabilisation call
7,MRPL37 (UniProt Q9BZE1),inactive: 0
14,MFSD6 (UniProt Q6ZSS7),inactive: 0
3,MRPL1 (UniProt Q9BYD6),inactive: 0
